Results deposited as PubChem BioAssay AID602196 (INSERM, 2012).
The deposit covers about 23,000 reagents; shown is an unselected part. Over the whole deposit, 455 (2%) were called active. 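Active includes both protection and sensitisation; some change values fall well beyond the stated -50 to +50 range.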 Further read-outs or replicates are left out here. The record does not give: the amount of reagent.

- Purpose: 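Genes whose knock-down alters cisplatin killing of lung cancer cells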
- Cell system: human A549 lung cancer cells
- Knock-down reagent: siRNA pair against human genes
- Time to read-out: 48 h transfection before cisplatin; time from cisplatin to read-out not stated
- Conditions: cisplatin at a dose killing half of control-siRNA cells; exact dose and duration not given
- Measured: 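Cisplatin cell death as a shift from the 50% death seen with control siRNA; siRNAs toxic or growth-blocking alone scored 0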
- Scale: two-siRNA summed score (-2 to +2): higher = both siRNAs protect from cisplatin killing; -2 means both sensitise
- Hit rule: 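Each siRNA scores 0 if harmful alone by LDH or WST-1, otherwise +1 if it reduces and -1 if it increases cisplatin killing; a gene is active when both siRNAs agree (sum +2 or -2)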
- Calls: active = both siRNAs shift cisplatin killing the same way; inactive = no consistent shift, or siRNA harmful alone

With knock-down of HHEX the results were two-siRNA summed score (-2 to +2) = 0; inactive.
Against GAD2, the entry reads two-siRNA summed score (-2 to +2) = -1; inactive.
With knock-down of LOC392382, the record shows two-siRNA summed score (-2 to +2) = 0; inactive.
Depletion of CASC22 gave: two-siRNA summed score (-2 to +2) = 0; inactive.
Against SLC16A10 the deposit lists two-siRNA summed score (-2 to +2) = 0; inactive.
After knock-down of CTLA4 the results were two-siRNA summed score (-2 to +2) = 0; inactive.
Knock-down of KIF13A resulted in: two-siRNA summed score (-2 to +2) = -1; inactive.
Silencing of CENPB came out at: two-siRNA summed score (-2 to +2) = 1; inactive.
KU-MEL-3 showed two-siRNA summed score (-2 to +2) = 2; active.
With knock-down of SETD6 the results were two-siRNA summed score (-2 to +2) = 0; inactive.
After knock-down of SLC25A38, the screen gave two-siRNA summed score (-2 to +2) = 0; inactive.
Against PMEL, the entry reads two-siRNA summed score (-2 to +2) = 0; inactive.

Entries above called active, once more:
KU-MEL-3 → two-siRNA summed score (-2 to +2): 2; outcome: active
